Laboratory results: PubChem BioAssay AID743121 (NCATS, 2013)
Aim: 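Knock-downs that sensitise breast cancer cells to camptothecin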 (primary screen). System: MDA-MB-231 cells, a human breast cancer line. Knock-down reagent: single siRNA against human genes, 20 nM siRNA (0.8 pmol per well). Duration: 120 h (drug added 48 h after transfection, read 72 h later). Treatment: camptothecin 20 nM (about EC30) for 72 h; vehicle 0.1% DMSO in parallel plates. Measurement: 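Cell viability by ATP luminescence (CellTiter-Glo) as % of non-targeting siRNA wells, and the log2 ratio of viability without drug over viability with camptothecin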. Reading the numbers: log2 vehicle/camptothecin viability: higher = stronger sensitisation to camptothecin. Hit rule: 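Active genes have an RSA gene-level p-value below 0.001, computed from the ratios of their separate siRNAs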.
Here is one part, drawn at random, of about 26,000 reagents. Over the whole deposit, 167 (0.63%) got an active call. 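Calls are per gene from RSA p-values that are not deposited; an individual active-marked siRNA can sensitise only weakly.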 The numbers tell different reagents against one gene apart. Not all columns of the deposit are shown.

gene | reagent | log2 vehicle/camptothecin viability | Call
VPS11 (GeneID 55823) | 1 | -0.0895 | inactive
VPS11 (GeneID 55823) | 2 | 0.234 | inactive
VPS11 (GeneID 55823) | 3 | 0.129 | inactive
VPS11 (GeneID 55823) | 4 | -0.192 | inactive
HSPB8 (GeneID 26353) | 1 | 0.492 | inactive
HSPB8 (GeneID 26353) | 2 | -0.0741 | inactive
HSPB8 (GeneID 26353) | 3 | 0.0644 | inactive
HSPB8 (GeneID 26353) | 4 | -0.241 | inactive
BAG6 (GeneID 7917) | 1 | -0.38 | inactive
BAG6 (GeneID 7917) | 2 | 0.00309 | inactive
BAG6 (GeneID 7917) | 3 | -0.381 | inactive
BAG6 (GeneID 7917) | 4 | 0.174 | inactive
KIF12 (GeneID 113220) | 1 | -0.465 | inactive
KIF12 (GeneID 113220) | 2 | 0.429 | inactive
KIF12 (GeneID 113220) | 3 | -0.134 | inactive
KIF12 (GeneID 113220) | 4 | -0.00961 | inactive
CDC23 (GeneID 8697) | 1 | 0.255 | inactive
CDC23 (GeneID 8697) | 2 | -0.141 | inactive
CDC23 (GeneID 8697) | 3 | 0.408 | inactive
CDC23 (GeneID 8697) | 4 | 1.19 | inactive
STRAP (GeneID 11171) | 1 | -0.467 | inactive
STRAP (GeneID 11171) | 2 | 0.326 | inactive
STRAP (GeneID 11171) | 3 | -0.48 | inactive
STRAP (GeneID 11171) | 4 | 0.103 | inactive
SPN (GeneID 6693) | 1 | -0.209 | inactive
SPN (GeneID 6693) | 2 | 0.384 | inactive
SPN (GeneID 6693) | 3 | -0.239 | inactive
SPN (GeneID 6693) | 4 | -0.0416 | inactive
BTNL9 (GeneID 153579) | 1 | -0.108 | inactive
BTNL9 (GeneID 153579) | 2 | -0.228 | inactive
BTNL9 (GeneID 153579) | 3 | -0.654 | inactive
RLN3 (GeneID 117579) | 1 | -0.766 | inactive
RLN3 (GeneID 117579) | 2 | 0.141 | inactive
RLN3 (GeneID 117579) | 3 | -0.11 | inactive
RLN3 (GeneID 117579) | 4 | -0.0884 | inactive

Next part; the last 6 above are carried over.
gene | reagent | log2 vehicle/camptothecin viability | Call
BTNL9 (GeneID 153579) | 2 | -0.228 | inactive
BTNL9 (GeneID 153579) | 3 | -0.654 | inactive
RLN3 (GeneID 117579) | 1 | -0.766 | inactive
RLN3 (GeneID 117579) | 2 | 0.141 | inactive
RLN3 (GeneID 117579) | 3 | -0.11 | inactive
RLN3 (GeneID 117579) | 4 | -0.0884 | inactive
AGA (GeneID 175) | 1 | -0.391 | inactive
AGA (GeneID 175) | 2 | -0.0239 | inactive
AGA (GeneID 175) | 3 | -0.0861 | inactive
AGA (GeneID 175) | 4 | 0.0785 | inactive
SPTB (GeneID 6710) | 1 | -0.362 | inactive
SPTB (GeneID 6710) | 2 | 0.0807 | inactive
SPTB (GeneID 6710) | 3 | -0.509 | inactive
SPTB (GeneID 6710) | 4 | -0.201 | inactive
TRIM9 (GeneID 114088) | 1 | -0.251 | inactive
TRIM9 (GeneID 114088) | 2 | -0.554 | inactive
TRIM9 (GeneID 114088) | 3 | -0.309 | inactive
TRIM9 (GeneID 114088) | 4 | -0.126 | inactive
ERMAP (GeneID 114625) | 1 | -0.574 | inactive
ERMAP (GeneID 114625) | 2 | -0.249 | inactive
ERMAP (GeneID 114625) | 3 | -0.179 | inactive
ERMAP (GeneID 114625) | 4 | -0.733 | inactive
CYP2E1 (GeneID 1571) | 1 | 0.156 | inactive
CYP2E1 (GeneID 1571) | 2 | -0.0611 | inactive
CYP2E1 (GeneID 1571) | 3 | -0.37 | inactive
CYP2E1 (GeneID 1571) | 4 | -0.325 | inactive
UNC13B (GeneID 10497) | 1 | -0.0303 | inactive
UNC13B (GeneID 10497) | 2 | -0.114 | inactive
UNC13B (GeneID 10497) | 3 | -0.186 | inactive
UNC13B (GeneID 10497) | 4 | -0.212 | inactive
NPR3 (GeneID 4883) | 1 | 1.02 | inactive
NPR3 (GeneID 4883) | 2 | -0.246 | inactive
NPR3 (GeneID 4883) | 3 | -0.293 | inactive
NPR3 (GeneID 4883) | 4 | -0.549 | inactive
SIGLEC8 (GeneID 27181) | 1 | -0.169 | inactive
SIGLEC8 (GeneID 27181) | 2 | -0.301 | inactive
SIGLEC8 (GeneID 27181) | 3 | 0.952 | inactive
SIGLEC8 (GeneID 27181) | 4 | 0.0207 | inactive
EIF4A3 (GeneID 9775) | 1 | -0.505 | inactive
EIF4A3 (GeneID 9775) | 2 | 0.124 | inactive
EIF4A3 (GeneID 9775) | 3 | -0.257 | inactive
EIF4A3 (GeneID 9775) | 4 | -0.282 | inactive
